Data: patent publication US20160340382

Target: T1, RNase A (UniProt P61823)
T1 sequence (looked up, limits assumed): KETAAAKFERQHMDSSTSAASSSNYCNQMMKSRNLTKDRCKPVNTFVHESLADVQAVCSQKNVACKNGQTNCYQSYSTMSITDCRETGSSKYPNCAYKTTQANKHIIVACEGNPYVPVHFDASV
Assay: enzyme reaction in vitro
Conditions: purified native protein

[1] = rU, other positions DNA, CITED Kelemen et al 1999, kcat/Km, label: 5'-6-FAM, 3'-6-TAMRA

## AAAUAAAA [Reference substrate D]
[1]
  activity on this sequence: active

## AAAUAAAATTTTTTTTTTTTTTT [RNase A substrate D (microarray)]
Single rU at position 4, all other positions DNA, 3' end tethered to glass [rU at 4, all other positions DNA, 3' end tethered to glass], 100 nM RNase A, 0.1 M MES, loss of Cy3 on array normalized to T-for-U DNA control, label: 5'-Cy3, letters built from the parent sequence and the stated change
  activity on this sequence: active

## AAUAAA [Reference substrate C]
[1]
  activity on this sequence: active

## AAUAAATTTTTTTTTTTTTTT [RNase A substrate C (microarray)]
Single rU at position 3, all other positions DNA, 3' end tethered to glass [rU at 3, all other positions DNA, 3' end tethered to glass], 100 nM RNase A, 0.1 M MES, loss of Cy3 on array normalized to T-for-U DNA control, label: 5'-Cy3, letters built from the parent sequence and the stated change
  activity on this sequence: active

## AUAATTTTTTTTTTTTTTT [RNase A substrate B (microarray)]
Single rU at position 2, all other positions DNA, 3' end tethered to glass [rU at 2, all other positions DNA, 3' end tethered to glass], 100 nM RNase A, 0.1 M MES, loss of Cy3 on array normalized to T-for-U DNA control, label: 5'-Cy3, letters built from the parent sequence and the stated change
  activity on this sequence: active

## UATTTTTTTTTTTTTTT [RNase A substrate A (microarray)]
Single rU at position 1, all other positions DNA, 3' end tethered to glass, 100 nM RNase A, 0.1 M MES, loss of Cy3 on array normalized to T-for-U DNA control, label: 5'-Cy3
  activity on this sequence: active

For at least one entry, the source does not settle the construct or the ends of the probe. Protein sequences can lack the tags named with them.
